# Library screening results

Amino acid sequences for entries named in this document (tags omitted).
UniProt E9BF75, entry or part of it: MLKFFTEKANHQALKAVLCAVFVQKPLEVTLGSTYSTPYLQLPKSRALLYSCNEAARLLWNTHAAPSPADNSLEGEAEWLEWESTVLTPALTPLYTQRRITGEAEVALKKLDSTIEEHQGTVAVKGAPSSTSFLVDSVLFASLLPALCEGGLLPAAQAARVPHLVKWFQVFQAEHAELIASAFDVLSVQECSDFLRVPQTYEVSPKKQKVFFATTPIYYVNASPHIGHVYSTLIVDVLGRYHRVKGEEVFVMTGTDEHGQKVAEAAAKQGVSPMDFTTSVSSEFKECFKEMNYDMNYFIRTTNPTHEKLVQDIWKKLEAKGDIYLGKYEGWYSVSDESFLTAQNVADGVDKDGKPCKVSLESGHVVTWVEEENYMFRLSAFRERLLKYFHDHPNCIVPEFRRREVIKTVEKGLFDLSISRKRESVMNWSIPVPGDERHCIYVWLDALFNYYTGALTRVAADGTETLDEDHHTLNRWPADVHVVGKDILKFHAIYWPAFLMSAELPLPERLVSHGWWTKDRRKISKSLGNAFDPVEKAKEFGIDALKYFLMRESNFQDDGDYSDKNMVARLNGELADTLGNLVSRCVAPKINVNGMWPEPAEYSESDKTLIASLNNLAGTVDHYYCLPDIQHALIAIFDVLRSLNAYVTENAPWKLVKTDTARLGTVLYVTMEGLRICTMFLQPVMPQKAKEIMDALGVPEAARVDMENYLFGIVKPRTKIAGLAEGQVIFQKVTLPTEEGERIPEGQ

The values are deposited in ChEMBL (CHEMBL3988442, “University of Dundee, Small-Polar-MMV Screening Library” (2021)).

Results are percentages, as filed. The controls that fix the scale are not given in the record; negative values are as filed. Compounds were drawn at random from those tested, without regard to their results.

Mtb heat-shock: 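Assay on Mycobacterium tuberculosis, filed only as a heat shock assay from Cornell; the read-out is not stated. The concentration is filed as 10 mM, unlikely as a test dose, so the dose is not known. Higher reads as stronger inhibition (inferred: compounds with an IC50 in retests scored well above the rest). About 69,000 compounds were tested under these conditions; 1.4% (about 930) showed 50% or more at least once.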
Mtb growth Cornell: 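Whole-cell assay for inhibitors of Mycobacterium tuberculosis growth, labelled Cornell in the record; the read-out is not stated. The concentration is filed as 10 mM, unlikely as a test dose, so the dose is not known. The record gives no direction; compounds strong in two other growth screens of this library score well above the rest, so higher reads as stronger inhibition. Of about 53,000 compounds tested this way, about 900 (1.7%) reached 50% or more in at least one test.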
LdMetRS: 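Primary screen of methionyl-tRNA synthetase; the read-out is not stated. Target: Methionyl-tRNA synthetase (putative), Leishmania donovani (UniProt E9BF75). The test concentration is not given. The values are filed as inhibition. Size under these conditions: about 68,000 compounds, about 24 of them at 50% or above in at least one test.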

Compound: CCn1ccnc1CNc1nccc(-c2c(C)nn(C)c2C)n1
Mtb heat-shock: 4.641%
Mtb growth Cornell: -9.892%
LdMetRS: 6.948%

Compound: CCC(=O)Nc1cc(Br)cnc1OCC(F)(F)F
Mtb heat-shock: -7.262%
LdMetRS: 22.93%

Compound: CC(=O)N1CCc2ccccc2C1CC(=O)NCc1nnc(C)o1 (centres undefined)
Mtb heat-shock: -20.98%
Mtb growth Cornell: -10.68%
LdMetRS: 4.082%

Compound: Cc1cnn(C2CCCN(C(=O)c3ccc(Cn4ccnc4)cc3)C2)c1 (centres undefined)
Mtb heat-shock: -30.27%
Mtb growth Cornell: -11.64%
LdMetRS: 3.419%

Compound: CN1C[C@]2(CC[C@@H](C(=O)N3CCOCC3)CC2)Oc2ccccc2C1=O
Mtb heat-shock: -4.609%
Mtb growth Cornell: 47.35%
LdMetRS: 15.12%

Compound: Cc1cnn(CC2CN(CC(=O)N(C)Cc3cnn(C)c3)CCO2)c1 (centres undefined)
Mtb heat-shock: -15.07%
Mtb growth Cornell: -28.01%
LdMetRS: 20.52%

Compound: CCn1nc(C)c(CN2CCCC(c3ccc(C(=O)O)cc3)C2)c1C (centres undefined)
Mtb heat-shock: -16.53%
Mtb growth Cornell: -7.3%
LdMetRS: 15.97%

Compound: N#Cc1ccnc(N2CCC(NCCN3CCCC3)CC2)c1
Mtb heat-shock: -3.242%
Mtb growth Cornell: 9.707%
LdMetRS: 19.06%

Compound: Cc1nc2n(n1)CC(NCc1nc(-c3ccccn3)no1)CC2 (centres undefined)
Mtb heat-shock: -26.98%
LdMetRS: 12.38%

Compound: CN(CCO)CC1COCCN1C(=O)CCC1CCCC1 (centres undefined)
LdMetRS: 12.68%

Compound: COC(=O)CS(=O)(=O)CCC(=O)N1CCCC1c1ccsc1 (centres undefined)
Mtb heat-shock: 7.619%
Mtb growth Cornell: 26.75%
LdMetRS: 10.62%

Compound: CCc1nc(N2CCN(CCOC)CC2)c2cnn(C)c2n1
Mtb heat-shock: -8.836%
LdMetRS: 13.4%

Compound: O=C(O)C(F)(F)F.[H][C@]12CCCC(OCc3cccnc3)[C@@]1([H])CN(C(=O)c1cscn1)C2 (some centres undefined)
Mtb heat-shock: 9.804%
Mtb growth Cornell: 32.02%

Compound: Cc1oc(C)c(C(=O)Nc2ccccn2)c1C
Mtb heat-shock: -15.69%
Mtb growth Cornell: -33.33%
LdMetRS: 3.064%

Compound: Nc1nc(CCC(=O)N2C[C@H](c3ccccc3)[C@@H](N)C2)cs1
Mtb heat-shock: -2.288%
Mtb growth Cornell: 25.36%
LdMetRS: 13.25%

Compound: Cc1cnn(CC2CCCCN2C(=O)c2c(C)noc2C)c1 (centres undefined)
Mtb heat-shock: -5.98%
Mtb growth Cornell: -20.56%
LdMetRS: 8%

Compound: CC(C)N1CCO[C@H]2CN(C(=O)c3ccncc3)C[C@H]21
LdMetRS: 4%

Compound: Cc1cc(C)n(CC(=O)N2CCC(c3nc(C)no3)CC2)n1
Mtb heat-shock: -4.876%
Mtb growth Cornell: 13.58%
LdMetRS: 12.39%

Compound: Cc1nn(C)c2nc(N3CCCCC3c3nccs3)sc12 (centres undefined)
Mtb heat-shock: -2.202%
Mtb growth Cornell: 14.35%
LdMetRS: 10.03%

Compound: CCO[C@@H]1CO[C@@]2(CCCN(C(=O)c3ccc(OC)c(F)c3)C2)C1
Mtb heat-shock: -26.36%
Mtb growth Cornell: 11.53%
LdMetRS: 20.59%

Compound: CC(C)C(NC(=O)Nc1cnn(CC(N)=O)c1)c1ccc(Cl)cc1 (centres undefined)
Mtb heat-shock: 3.309%
Mtb growth Cornell: 8.041%
LdMetRS: 16.88%

Compound: O=C(CSC1CCCC1)N1CCN(c2ccc(-n3cncn3)nn2)CC1
Mtb heat-shock: 4.727%
Mtb growth Cornell: -7.169%
LdMetRS: 2.158%

Compound: Cc1cnn(C2CN(CC(O)Cn3cccn3)C2)c1 (centres undefined)
Mtb heat-shock: -22.27%
Mtb growth Cornell: 17.14%
LdMetRS: 20.96%

Compound: CCN1CCN(c2ccc(CNC(=O)c3ccccc3F)cn2)CC1
Mtb heat-shock: -13.05%
Mtb growth Cornell: -22.18%
LdMetRS: 26.3%

Compound: Cc1ccc([C@@H]2CN(C(=O)CCc3cc(Cl)no3)C[C@H]2N(C)C)cc1
Mtb heat-shock: -9.737%
Mtb growth Cornell: 40.51%
LdMetRS: 10.2%